Results are given in words; binding and its absence hold for the method and conditions named. In cells and extracts the contact can be indirect. Some entries that bind do so weakly or less than the wild type. Sequences can lack the tags named with a protein.

For this assay, the target named is T1, BTS-GFP (Arabidopsis) (UniProt Q8LPQ5).
T1 sequence: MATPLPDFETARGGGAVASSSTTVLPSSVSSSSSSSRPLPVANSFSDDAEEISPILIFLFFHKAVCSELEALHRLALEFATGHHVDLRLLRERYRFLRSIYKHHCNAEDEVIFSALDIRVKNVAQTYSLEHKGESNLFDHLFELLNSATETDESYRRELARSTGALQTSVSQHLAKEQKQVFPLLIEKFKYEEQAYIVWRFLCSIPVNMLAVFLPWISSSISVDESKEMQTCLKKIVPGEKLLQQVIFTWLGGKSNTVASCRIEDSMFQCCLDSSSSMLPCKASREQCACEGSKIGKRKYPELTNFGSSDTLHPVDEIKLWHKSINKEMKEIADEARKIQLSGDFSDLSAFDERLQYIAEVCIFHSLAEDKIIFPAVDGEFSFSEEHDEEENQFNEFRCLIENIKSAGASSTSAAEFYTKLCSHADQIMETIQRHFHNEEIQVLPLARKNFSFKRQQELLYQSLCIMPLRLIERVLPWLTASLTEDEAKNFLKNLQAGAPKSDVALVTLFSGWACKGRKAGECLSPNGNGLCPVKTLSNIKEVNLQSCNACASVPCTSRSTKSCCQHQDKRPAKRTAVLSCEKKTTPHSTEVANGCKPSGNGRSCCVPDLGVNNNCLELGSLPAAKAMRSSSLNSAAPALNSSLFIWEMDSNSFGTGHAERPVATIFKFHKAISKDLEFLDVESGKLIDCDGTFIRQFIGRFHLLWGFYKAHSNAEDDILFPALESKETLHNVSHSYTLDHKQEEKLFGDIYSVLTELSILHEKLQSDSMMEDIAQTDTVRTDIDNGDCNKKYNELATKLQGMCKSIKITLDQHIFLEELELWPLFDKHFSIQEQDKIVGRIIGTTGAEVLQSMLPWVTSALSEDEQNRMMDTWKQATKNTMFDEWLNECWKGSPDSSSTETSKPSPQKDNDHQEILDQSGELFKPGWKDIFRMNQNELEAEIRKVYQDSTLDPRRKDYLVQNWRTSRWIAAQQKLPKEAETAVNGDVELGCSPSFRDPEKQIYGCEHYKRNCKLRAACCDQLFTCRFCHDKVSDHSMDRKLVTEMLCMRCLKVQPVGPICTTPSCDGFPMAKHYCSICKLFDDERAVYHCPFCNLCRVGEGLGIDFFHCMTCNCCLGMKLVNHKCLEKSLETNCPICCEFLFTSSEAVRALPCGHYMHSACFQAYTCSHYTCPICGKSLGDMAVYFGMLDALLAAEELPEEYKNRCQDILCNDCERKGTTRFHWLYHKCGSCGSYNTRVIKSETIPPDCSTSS
Kind of assay: co-IP; N. benthamiana leaves co-expressing BTS-GFP and its partner; immunoprecipitation with GFP antibody-conjugated agarose beads; blots with anti-GFP and anti-Flag.

B1: ILR3 co-immunoprecipitated with BTS (construct not described) (protein, UniProt Q9FH37 1-234)
chain: MVSPENANWICDLIDADYGSFTIQGPGFSWPVQQPIGVSSNSSAGVDGSAGNSEASKEPGSKKRGRCESSSATSSKACREKQRRDRLNDKFMELGAILEPGNPPKTDKAAILVDAVRMVTQLRGEAQKLKDSNSSLQDKIKELKTEKNELRDEKQRLKTEKEKLEQQLKAMNAPQPSFFPAPPMMPTAFASAQGQAPGNKMVPIISYPGVAMWQFMPPASVDTSQDHVLRPPVA
In the case of B1, the binding entry is “binds”.

Values taken from PMC11696086.
